{"sequences": {"note": "Amino acid sequences for entries named in this document (tags omitted).", "UniProt A0A1D8PSJ6": "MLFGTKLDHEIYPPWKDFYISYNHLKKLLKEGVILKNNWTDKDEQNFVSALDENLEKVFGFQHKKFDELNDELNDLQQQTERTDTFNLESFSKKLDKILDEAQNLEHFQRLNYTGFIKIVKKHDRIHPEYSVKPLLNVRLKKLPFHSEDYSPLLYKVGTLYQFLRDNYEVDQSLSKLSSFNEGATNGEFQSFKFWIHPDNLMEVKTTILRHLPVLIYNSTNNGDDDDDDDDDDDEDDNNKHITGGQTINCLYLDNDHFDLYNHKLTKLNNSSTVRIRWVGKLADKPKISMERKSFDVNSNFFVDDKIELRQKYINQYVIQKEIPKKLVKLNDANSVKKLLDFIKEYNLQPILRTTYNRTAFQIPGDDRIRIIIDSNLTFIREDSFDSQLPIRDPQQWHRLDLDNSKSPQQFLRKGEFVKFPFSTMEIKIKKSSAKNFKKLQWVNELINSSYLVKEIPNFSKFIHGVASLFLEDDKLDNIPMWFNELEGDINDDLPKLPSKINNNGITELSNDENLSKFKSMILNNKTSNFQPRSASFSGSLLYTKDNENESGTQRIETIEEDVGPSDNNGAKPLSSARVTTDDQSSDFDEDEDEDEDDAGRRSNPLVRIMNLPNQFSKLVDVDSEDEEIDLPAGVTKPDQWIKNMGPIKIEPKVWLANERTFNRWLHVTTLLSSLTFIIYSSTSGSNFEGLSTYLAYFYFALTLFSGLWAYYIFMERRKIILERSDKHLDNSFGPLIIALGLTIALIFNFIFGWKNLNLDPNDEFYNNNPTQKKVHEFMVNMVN", "UniProt Q59PH5": "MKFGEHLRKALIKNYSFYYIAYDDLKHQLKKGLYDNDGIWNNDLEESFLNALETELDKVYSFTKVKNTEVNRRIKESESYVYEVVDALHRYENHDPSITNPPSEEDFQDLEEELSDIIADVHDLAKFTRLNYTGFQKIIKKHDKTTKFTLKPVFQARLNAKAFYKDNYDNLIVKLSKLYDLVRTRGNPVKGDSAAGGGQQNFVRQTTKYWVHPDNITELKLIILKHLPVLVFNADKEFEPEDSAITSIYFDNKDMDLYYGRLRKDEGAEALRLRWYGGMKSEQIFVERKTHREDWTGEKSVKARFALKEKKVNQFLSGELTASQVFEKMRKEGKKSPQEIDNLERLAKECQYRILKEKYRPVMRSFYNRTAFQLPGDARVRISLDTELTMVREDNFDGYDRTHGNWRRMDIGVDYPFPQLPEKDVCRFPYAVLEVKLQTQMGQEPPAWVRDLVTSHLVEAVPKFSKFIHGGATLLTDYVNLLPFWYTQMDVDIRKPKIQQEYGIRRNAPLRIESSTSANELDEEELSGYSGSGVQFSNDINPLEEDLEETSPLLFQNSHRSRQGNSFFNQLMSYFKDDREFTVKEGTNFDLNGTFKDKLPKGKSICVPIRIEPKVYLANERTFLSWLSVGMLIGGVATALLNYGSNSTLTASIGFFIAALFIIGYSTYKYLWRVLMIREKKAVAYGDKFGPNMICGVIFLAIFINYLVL", "UniProt P0CY33": "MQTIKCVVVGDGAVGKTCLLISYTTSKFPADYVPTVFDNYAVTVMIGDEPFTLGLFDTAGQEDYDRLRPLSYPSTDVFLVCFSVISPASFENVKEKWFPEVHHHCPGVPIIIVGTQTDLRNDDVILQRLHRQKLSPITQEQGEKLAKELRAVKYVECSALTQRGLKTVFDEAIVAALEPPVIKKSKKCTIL"}, "source": "paper PMC7554666", "molecules": {"B1": {"name": "Ykt6 (protein, UniProt Q5AI79 1-200)", "chain": "MKIYYIGILRSSGDKALELTSARDLSQFSFFERNGVSQFMTFFAETVSQRTQPGQRQSVEEGNYIGHTYTRSEGISGIIITDKDYPVRPAYTLINKILEEYLSLHPKSDWENIDKANETLQYGQLEAYLKKYQDPTQADSIMKVQQELDDTKVVLHKTIEGVLQRGEKLDSLVDKSEALSSSSRMFYKQAKKTNSCCVIM"}, "B2": {"name": "Cdc11 (protein, UniProt G1UB61 1-402)", "chain": "MNYSTENVSSAALRKRKTLKKSINFSIMIIGESGSGRSTLINTLCGGNSIVPTSSTATQDPFTKKLTLRHENVELEDNEGHKISLNIIDTPNFANSINCDDDFKIIVDFIRHQFDEVLLEESRVKRNPRFKDGRIHVLIYMINPTGHGLSDIDVKFLQHVNNLVNIIPIISKADSLTPKELKLNKELILEDLNNYGINFYKFNEYDYEQDYIDEEIIEYNKYLNSLIPFAIIGANEYRSNPNGSEDEDDILKLRILNKDFKPIDIDNAEINDFTILKNVLLVTHLNEFKDITHDSIYENYRTEALSGKQFQYVNKDSAKQEISESDYLMKEEQIKLEEERLRKFEERVHQDLINKRKELLERENELKEIEKRLLAEGLKFDENGDVVKVHEEESSENEVKVI"}, "B3": {"name": "Vac8 (protein, UniProt Q59MN0 1-585)", "chain": "MGACCSCLGNRGGDGSHTQLLLAENEREAISALLQYLENRSDVDFFSNGPLRALSTLVYSENIDLQRSAALAFAEITEKDVREVNRDVLEPILILLQSADSEVQRAACGALGNLAVNTENKILIVEMGGLEPLIRQMMSTNIEVQCNAVGCITNLATQDDNKSKIAKSGALIPLTKLAKSKDIRVQRNATGALLNMTHSGENRQELVNAGAVPVLVSLLSNEDADVQYYCTTALSNIAVDEVNRKKLASTEPKLVGQLVHLMDSPSPRVQCQATLALRNLASDSGYQVEIVRAGGLPHLVQLLTCNHQPLVLAAVACIRNISIHPLNEALIIEAGFLKPLVGLLDYTDSEEIQCHAVSTLRNLAASSEKNRTALLAAGAVDKCKELVLKVPLTVQSEISACFAILALADDLKPKLYESHIIDVLIPLTFSENGEVCGNSAAALANLCSRVSNEHKQYILNNWAQPNEGIYGFLIRFLESGSPTFEHIALWTILQLLESNNTEINALIKENETILAGIKNLSASQQQIQQSQIGQTTTTTTTNITNNNTNTNTNTNTTTSTSNEDQFEDPKVELFNLTQQILQILG"}, "B4": {"name": "Sep7/Shs1 (protein, UniProt Q59VX8 1-670)", "chain": "MSRFDYRNTSKNTSVVDPDHSSPIINYRKDAKKGIKFTFMVVGESGTGKTTFINSLLNKKVLNHRYEKLSPTVGDTKTLMFTSAKSVALPNTSILTKNEFNPRTINEEPGIALTETHIEIIDDDNQKLLLNIIDTPGFGENLNNELCFIEIENYLKQQFDLVLAEETRIKRNPRFVDTRVHVMLYFITPTGHGLREIDIQCMKRLSKYVNIIPVIGKADSFTLNELQHFKQQIRIDIQKFNVPTFQFDNSLNDYDEDEDYDLIQECKFLTNLQPFAVVTSEDVFEVRESTTSTKGNNDKPKIIRARKYPWGLVDINDTRYSDFPILKSVLLGSHLQDLKDLTHDFLYETYRTERLTKVTGNGQAFDDEENEDAEFHDTVEHQLNDSNRGVGGDDNNNNNNNNNNASTIPSMSNLAQLTTSTNEHDASHIDNNSITSTSSSIKKSTSMLIDDHPSSSPKLKNISSFTSSTSTVSLEGGEKEGGHHDRGANSTSTNNNNNNNAFKRLSIGPQRNQLRQISETVPYVLRHERILERQQKLEEMEQASARELANRAALLEKKAAQLKAKEKALRQLELNRQKQEESATSSLHRKDSDISGSVQSGGVDDGKSESTNNNNNNRNGYGYGHGHGHGQSHEYDNSEYHHDDSTPNYETSRLQKDETLTDLHSIVSNH"}, "B5": {"name": "Sec18 (protein, UniProt P34732 1-794)", "chain": "MEKLGFHKVSNSPSSPSQPKITHNRPIPHPQSPPLPQRPLSEPLKKQLLVDNSPGNDVVIANCVAVNAQDFQNIPDRAPVILDGVFVYSIAKDDRVRPGTIGLAGNMRTWGKWSLGQPVNVENYNIFHNGQQQQYLGAIDLSIDFRAKARANSNPINHDELVALFLKNYENQILQPTQVIYMEYTGIYFQIRVNNVQIIDVNTKDQLPSFKDSDDINTKGILIKSTDVGFYPYEGSIINLTKPKTLKQRMFGGSTPHRTSRRKQIINPDFKLEDLGIGGLDAEFQDIFRRAFNSRILPPELAEKLDYKHCKGLLLYGPPGTGKTLIARKLSKMLNGKEPKIVNGPEMLSKYVGASEENIRNLFKDAEAEYKLKGEDSDLHVIIFDELDSVFKQRGSGKSDGTGVGDNVVNQLLSKMDGVDQLNNILVIGMTNRLDLIDTALLRPGRFEIQIEISLPDEKGRKDIFLIHTKKLTENGILSSDVNFDELSTLTKNFTGAEIEGLCNSAKSYAISRHTKKGALAQIDPESIAKMKITRDDFLLALNDIRPAFGTDEEDLSQQAQHGIIQFNQTIRNIFEKGQSIIDVVRSSETEHLRSILLYGPPGVGKTSIATTLALNSDFPFIKMLSAETLVGMGELRKIQEIDNVFRDVHKSPLNVLVIDKIENIINYNPIGPRFSNDILQVLMVYLTKKPPKGRRLLIIGTTSQYQVFKHMNLIDSFNDAIAVPPIKHIEEVGKVLDKLGFMNKSEREEILSQLSRYDINIGIKSLIDVLMVSKYSRDTVDEVVNNIVEKMSG"}, "B6": {"name": "Cdc3 (protein, UniProt P39826 1-416)", "chain": "MSTNIKIIKKVLNGYVGFANLPKQWHRKSIRRGFSLNIMAIGESGLGKATLINTLFNRDIITSQHDSDEFDEGEEEDVSVKIKSTQAEIEEDGVKLKVSVITAPGFGESINNVEAWKPIVDEINSRFDSYLEAESRINRTAVVDNRVHAFLYFIEPTGHSLRALDIALMKQVHEKVNLIPVIAKSDTLTDEEILEFKHRILADISHQGIKIFKPTDFEYDEEESANTRSIIDSFPFAVVGSTNEVQTPDGRLVRGRKYPWGVIEVDNENHNDFVKLRQLLVRNFLEELKEHTANVLYENYRTEKLKRMGIEQDNTVFREFDPAAKQEEERALHEAKLAKMEAEMKSVFQQKVSEKEKKLQRSEADLFARHKEMKDKLTKQIKLLEEKKAQLEKQKLLPQDPPAQPAPQKSRKGFLR"}}, "note": "No constants are given. Whether binding was seen depends on the method and setting. Binding seen in cells or lysates may run through a third protein. A yes stands for co-enrichment or nearness to the bait. Other partners may have been found. Where a sequence is shown, tags or fusion partners need not be part of it."}
{"target": "T1, glutathione transferase (GST)-6×His-Rsr1^1–243 (C. albicans) (UniProt P52498)", "T1 sequence": "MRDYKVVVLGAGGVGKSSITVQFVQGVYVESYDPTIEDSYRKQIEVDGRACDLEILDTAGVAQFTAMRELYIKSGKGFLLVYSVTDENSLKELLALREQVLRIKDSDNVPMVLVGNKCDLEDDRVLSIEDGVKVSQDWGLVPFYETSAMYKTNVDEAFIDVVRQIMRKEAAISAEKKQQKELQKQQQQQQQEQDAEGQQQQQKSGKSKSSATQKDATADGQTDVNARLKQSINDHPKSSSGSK", "experiment": "affinity purification with mass spectrometry; 550 ug purified GST-Rsr1 1-243 mixed with 45 mg crude protein extract from C. albicans yeast or hyphae (septins: hyphae; other hits: lysate not told apart), overnight 4°C, captured on glutathione Sepharose, washed with PBS, eluted with 20 mM glutathione, LC-MS/MS; ratio against GST tag alone, n = 3; only the target purified"}
{"molecule": "B1", "binding": "binds"}
{"molecule": "B2", "binding": "binds"}
{"molecule": "B3", "binding": "binds"}
{"molecule": "B4", "binding": "binds"}
{"molecule": "B5", "binding": "binds"}
{"molecule": "B6", "binding": "binds"}
{"target": "T1, glutathione transferase (GST)-6×His-Rsr1^1–243 (C. albicans)", "experiment": "affinity purification with mass spectrometry; 550 ug purified GST-Rsr1 1-243 mixed with 45 mg crude protein extract from C. albicans yeast or hyphae (septins: hyphae; other hits: lysate not told apart), overnight 4°C, captured on glutathione Sepharose, washed with PBS, eluted with 20 mM glutathione, LC-MS/MS; ratio against GST tag alone, n = 3; only the target purified", "remark": "another data set of the same source"}
{"molecule": "Vtc3 (from UniProt A0A1D8PSJ6 1-784)", "binding": "binds"}
{"molecule": "Vtc4 (from UniProt Q59PH5 1-709)", "binding": "binds"}
{"molecule": "Cdc12", "binding": "binds"}
{"molecule": "Cdc42 GTPase (from UniProt P0CY33 1-191)", "binding": "binds"}
{"molecule": "Cdc24", "binding": "binds"}
